Literature values as cited in PMC6226116 (Clinical and Translational Science, 2018).

Conditions: with cyclosporine; cited from earlier work

## CC(C)c1c(C(=O)Nc2ccccc2)c(-c2ccccc2)c(-c2ccc(F)cc2)n1CC[C@@H](O)C[C@@H](O)CC(=O)O [atorvastatin]
  increase in systemic exposure to atorvastatin and its metabolites: 15 fold
